Results deposited as PubChem BioAssay AID1259308 (NCATS, 2017).

- Purpose: 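Genes whose loss raises luciferase production in HEK293 cells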 (primary screen)
- Cells: human HEK293 embryonic kidney cells stably expressing firefly luciferase (HEK-CMV-Luc2-Hygro)
- Reagent: single siRNA against human genes, 0.8 pmol siRNA per well
- Timing: 72 h
- Detection: 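Reporter luminescence and viable-cell signal on separate replicate plates, given as percent of non-targeting control and median/MAD z-scores, plus per-cell luciferase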
- Reading the numbers: total luciferase, z-score and total luciferase, % of control: higher = more reporter protein produced; luciferase per cell, z-score: higher = more reporter output per viable cell
- Call rule: 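Active when the median/MAD z-score for overall luciferase is greater than 3; a gene was taken forward for validation with new siRNAs if at least two of its three siRNAs passed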
- Meaning of the calls: active = raised luciferase; inactive = no rise
Shown is a random part of about 59,000 deposited reagents. About 1,510 of all reagents (2.6%) count as active. 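Calls use total luciferase alone and ignore viability, so some active siRNAs may act by altering cell number.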 The numbers tell different reagents against one gene apart. Further read-outs or replicates are left out here. No sequences are given here.

| target | reagent no. | total luciferase, z-score | total luciferase, % of control | luciferase per cell, z-score | Call |
| --- | --- | --- | --- | --- | --- |
| MRO (maestro) | 1 | 0.101 | 83.9 | -0.15 | inactive |
| MRO (maestro) | 2 | -0.669 | 68.6 | 0.14 | inactive |
| MRO (maestro) | 3 | 1.43 | 110 | 3.29 | inactive |
| TSPAN10 (tetraspanin 10) | 1 | 1.21 | 106 | 0.616 | inactive |
| TSPAN10 (tetraspanin 10) | 2 | 1.05 | 103 | 0.557 | inactive |
| TSPAN10 (tetraspanin 10) | 3 | 2.9 | 140 | 1.43 | inactive |
| QSOX2 (quiescin sulfhydryl oxidase 2) | 1 | -0.994 | 62.1 | -1.7 | inactive |
| QSOX2 (quiescin sulfhydryl oxidase 2) | 2 | -0.109 | 79.7 | -0.886 | inactive |
| QSOX2 (quiescin sulfhydryl oxidase 2) | 3 | 0.286 | 87.6 | -0.513 | inactive |
| PRPSAP1 (phosphoribosyl pyrophosphate synthetase associated protein 1) | 1 | 0.137 | 84.6 | -0.0863 | inactive |
| PRPSAP1 (phosphoribosyl pyrophosphate synthetase associated protein 1) | 2 | 0.127 | 84.4 | -0.357 | inactive |
| PRPSAP1 (phosphoribosyl pyrophosphate synthetase associated protein 1) | 3 | -1.25 | 57 | -1.73 | inactive |
| SHISA8 (shisa family member 8) | 1 | -0.111 | 79.7 | 0.219 | inactive |
| SHISA8 (shisa family member 8) | 2 | 1.5 | 112 | 1.26 | inactive |
| SHISA8 (shisa family member 8) | 3 | -0.109 | 79.7 | -0.37 | inactive |
| COL4A4 (collagen type IV alpha 4 chain) | 1 | 1.3 | 108 | 1.71 | inactive |
| COL4A4 (collagen type IV alpha 4 chain) | 2 | 0.852 | 98.8 | 0.909 | inactive |
| COL4A4 (collagen type IV alpha 4 chain) | 3 | -0.906 | 63.9 | -0.798 | inactive |
| GLP2R (glucagon like peptide 2 receptor) | 1 | 0.218 | 86.2 | 0.436 | inactive |
| GLP2R (glucagon like peptide 2 receptor) | 2 | -0.135 | 79.2 | -0.49 | inactive |
| GLP2R (glucagon like peptide 2 receptor) | 3 | -0.216 | 77.6 | -0.966 | inactive |
| MAGEB1 (MAGE family member B1) | 1 | -0.0518 | 80.9 | -0.122 | inactive |
| MAGEB1 (MAGE family member B1) | 2 | 1.06 | 103 | 0.719 | inactive |
| MAGEB1 (MAGE family member B1) | 3 | -0.968 | 62.6 | -0.806 | inactive |
| CCDC14 (coiled-coil domain containing 14) | 1 | -0.714 | 67.7 | -0.899 | inactive |
| CCDC14 (coiled-coil domain containing 14) | 2 | 1.34 | 109 | 1.08 | inactive |
| CCDC14 (coiled-coil domain containing 14) | 3 | 0.157 | 85 | -1.09 | inactive |
| SEC62 (SEC62 preprotein translocation factor) | 1 | 0.546 | 92.7 | 0.295 | inactive |
| SEC62 (SEC62 preprotein translocation factor) | 2 | 0.677 | 95.4 | 1.06 | inactive |
| SEC62 (SEC62 preprotein translocation factor) | 3 | 1.26 | 107 | 1.83 | inactive |
| PTBP3 (polypyrimidine tract binding protein 3) | 1 | -1.29 | 56.2 | -1.21 | inactive |
| PTBP3 (polypyrimidine tract binding protein 3) | 2 | 2.8 | 138 | 1.27 | inactive |
| PTBP3 (polypyrimidine tract binding protein 3) | 3 | -0.573 | 70.5 | -0.063 | inactive |
| DPM3 (dolichyl-phosphate mannosyltransferase subunit 3, regulatory) | 1 | -0.117 | 79.6 | -0.0728 | inactive |
| DPM3 (dolichyl-phosphate mannosyltransferase subunit 3, regulatory) | 2 | -0.15 | 78.9 | -0.176 | inactive |
| DPM3 (dolichyl-phosphate mannosyltransferase subunit 3, regulatory) | 3 | 0.169 | 85.3 | -0.509 | inactive |
| BTN3A3 (butyrophilin subfamily 3 member A3) | 1 | 0.404 | 89.9 | -0.122 | inactive |
| BTN3A3 (butyrophilin subfamily 3 member A3) | 2 | -1.23 | 57.4 | -1.35 | inactive |
| BTN3A3 (butyrophilin subfamily 3 member A3) | 3 | -1.19 | 58.2 | -1.58 | inactive |
| PTGS1 (prostaglandin-endoperoxide synthase 1) | 1 | 0.362 | 89.1 | 0.369 | inactive |
| PTGS1 (prostaglandin-endoperoxide synthase 1) | 2 | 0.291 | 87.7 | -0.717 | inactive |
| PTGS1 (prostaglandin-endoperoxide synthase 1) | 3 | -0.347 | 75 | -1.22 | inactive |
| LINC02693 (long independently transcribed non-coding RNA 2693) | 1 | -0.627 | 69.4 | 0.782 | inactive |
| LINC02693 (long independently transcribed non-coding RNA 2693) | 2 | -0.287 | 76.2 | 0.249 | inactive |
| LINC02693 (long independently transcribed non-coding RNA 2693) | 3 | -0.152 | 78.9 | -0.101 | inactive |
| SEZ6L (seizure related 6 homolog like) | 1 | 0.739 | 96.6 | 0.815 | inactive |
| SEZ6L (seizure related 6 homolog like) | 2 | -0.521 | 71.5 | -0.637 | inactive |
| SEZ6L (seizure related 6 homolog like) | 3 | -1.78 | 46.5 | -1.52 | inactive |
| GDAP2 (ganglioside induced differentiation associated protein 2) | 1 | 0.65 | 94.8 | 1.57 | inactive |
| GDAP2 (ganglioside induced differentiation associated protein 2) | 2 | -0.411 | 73.7 | -0.651 | inactive |
| GDAP2 (ganglioside induced differentiation associated protein 2) | 3 | 1.91 | 120 | 1.23 | inactive |
| LYPLA2 (lysophospholipase 2) | 1 | 1.28 | 107 | 2.07 | inactive |
| LYPLA2 (lysophospholipase 2) | 2 | 1.13 | 104 | 0.49 | inactive |
| LYPLA2 (lysophospholipase 2) | 3 | 0.189 | 85.6 | -0.191 | inactive |
| FAM111A (FAM111 trypsin like peptidase A) | 1 | -0.0597 | 80.7 | -0.207 | inactive |
| FAM111A (FAM111 trypsin like peptidase A) | 2 | -0.25 | 76.9 | -0.00874 | inactive |
| FAM111A (FAM111 trypsin like peptidase A) | 3 | 0.201 | 85.9 | -0.117 | inactive |

Part of the list above, showing only “total luciferase, z-score”:
COL4A4 (collagen type IV alpha 4 chain) #1: 1.3
COL4A4 (collagen type IV alpha 4 chain) #2: 0.852
COL4A4 (collagen type IV alpha 4 chain) #3: -0.906
GLP2R (glucagon like peptide 2 receptor) #1: 0.218
GLP2R (glucagon like peptide 2 receptor) #2: -0.135
GLP2R (glucagon like peptide 2 receptor) #3: -0.216
MAGEB1 (MAGE family member B1) #1: -0.0518
